Test results published in the supplement of paper PMC12889115.
The list shows a part of the results. Values are raw readings; no control value is given beside them.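 In the initial screen, polymyxin B was used at a concentration that permeabilizes Salmonella's outer membrane but not its inner membrane. Maximum growth was set by DMSO wells with or without polymyxin B. Since plates varied, data were ranked per plate, and compounds giving the lowest OD600 advanced as hits.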

Test system: Salmonella enterica serovar Typhimurium SL1344
Assay: bacterial growth OD600 after 18 h with compound and polymyxin B; higher = more bacterial growth (less inhibition)
Conditions: 50 µM, Mueller-Hinton broth

Compound | bacterial growth OD600 (polymyxin B 0.75 µg/mL) | bacterial growth OD600 (polymyxin B 1 µg/mL)
Cc1ccccc1CCC1CCCN(Cc2nccn2C)C1 (centres undefined) | 0.78 | –
COc1ccc(OCc2cc(C(=O)N(C)Cc3cc(C)[nH]n3)n[nH]2)c(Cl)c1 | – | 0.932
O=C(CCc1nnc(CCCCc2ccccc2)o1)N1CCOc2ccccc2C1 | – | 0.633
CCn1nc(C)c(CN2CCCC(CNS(=O)(=O)c3ccc(OC)cc3)C2)c1C (centres undefined) | – | 1.05
CN(C(=O)c1ccsc1)C(Cc1ccccc1)C1CCN(C(=O)c2cccc(Cl)c2)CC1 (centres undefined) | 0.004 | –
Cc1cc(C)n(Cc2cc(C(=O)NCC3(N(C)C)CCCCC3)n[nH]2)n1 | – | 0.863
CCCN(Cc1nc(-c2ccc(F)c(OC)c2)oc1C)CC1CCCO1 (centres undefined) | 0.774 | –
CN(CCc1cnn(C)c1)C(=O)c1cc(NC(=O)CC2CCCC2)cc2nc(C3CCCO3)n(C)c12 (centres undefined) | 0.827 | –
COc1cccc(C(=O)N2CCCC(c3nc(-c4ccncc4)ncc3-c3ccccc3C)C2)c1OC (centres undefined) | 0.01 | –

A stretch from the list above, for reference:
Compound | bacterial growth OD600 (polymyxin B 0.75 µg/mL) | bacterial growth OD600 (polymyxin B 1 µg/mL)
CN(C(=O)c1ccsc1)C(Cc1ccccc1)C1CCN(C(=O)c2cccc(Cl)c2)CC1 (centres undefined) | 0.004 | –
Cc1cc(C)n(Cc2cc(C(=O)NCC3(N(C)C)CCCCC3)n[nH]2)n1 | – | 0.863
